No constants are given. Whether binding was seen depends on the method and setting. Binding seen in cells or lysates may run through a third protein. Binding can be weak; no strength is given. Sequences can lack the tags named with a protein.
Key:
Test in all cases: split reporter; BiFC with split Venus (VN and VC fusions) in rice protoplasts, PEG-mediated transfection; ER-mCherry as internal control; confocal microscopy
[1] = molecular target: OsDREB1A-VC (BiFC fusion) (rice)
[2] = molecular target: OsDREB1B-VC (BiFC fusion) (rice)
[3] = molecular target: OsDREB1C-VC (BiFC fusion) (rice)

Binder	binding [1]	binding [2]	binding [3]
OsPP2C09-VN (BiFC fusion) (enzyme, UniProt Q5N9N2 1-414) MAEICCEEAMSPPATATAAVAAAVSASAAAAVSSAIDRRRRRMEMRRIRIASDLELQAGEDGRPGKRQRLARTASGAPRPDEDSASERPSCGRTEEFPRYGVTAVCGRRREMEDAVSIRPDFLPASGKFHFYGVFDGHGCSHVATTCQDRMHEIVAEEHNKGASGEVAPWRDVMEKSFARMDGEVGNRASTRSDDEPACPCEQQTPSRRDHAGSTAVVAVVSPTQVVVANAGDSRAVISRAGVPVALSVDHKPDRPDELERIEAAGGRVIYWDGARVLGVLAMSRAIGDGYLKPYVTSEPEVTVTERTDDDECLILASDGLWDVVTNEMACEVVRACFHNNGPPAPAARPSGVPSSAEAAETENGGAASVKGISKAESSDKACSDAAMLLTKLALARRSADNVSVVVVDLRRGL	binds	binds	binds
OsPP2C30-VN (BiFC fusion) (enzyme, UniProt Q84JI0 1-404) MAEICCEVVAGSSSEGKGPECDTGSRAARRRRMEIRRLRVVAERGAEEETSGKRRRLDGGGGEASTDEEDREVERARYGFTSVCGRRRDMEDSVSACPGFLPGHHFFGVFDGHGCSHVATSCGQRMHEIVVDEAGAAAGSAGLDEEARWRGVMERSFARMDAEAVASSRGSVAPAPTCRCEMQLPKCDHVGSTAVVAVLGPRHVVVANCGDSRAVLCRGGAAIPLSCDHKPDRPDELERIHAAGGRVIFWDGARVFGMLAMSRAIGDSYLKPYVICDPEVRVMERKDGEDEFLILASDGLWDVVSNEVACNVVRACLRSSGRRERNRSSPTSNLSPRQSSSSGDEAPNDGAPSAAAGSESDEESAAEEDKACAEAAVLLTKLALARQTSDNVSVVVVNLRRRKL	binds	binds	binds
OsPP2C06-VN (BiFC fusion) (enzyme, UniProt Q0JLP9 1-467) MEDVAVAAALAPAPATAPVFSPAAAGLTLIAAAAADPIAAVVAGAMDGVVTVPPVRTASAVEDDAVAPGRGEEGGEASAVGSPCSVTSDCSSVASADFEGVGLGFFGAAADGGAAMVFEDSAASAATVEAEARVAAGARSVFAVECVPLWGHKSICGRRPEMEDAVVAVSRFFDIPLWMLTGNSVVDGLDPMSFRLPAHFFGVYDGHGGAQVANYCRERLHAALVEELSRIEGSVSGANLGSVEFKKKWEQAFVDCFSRVDEEVGGNASRGEAVAPETVGSTAVVAVICSSHIIVANCGDSRAVLCRGKQPVPLSVDHKPNREDEYARIEAEGGKVIQWNGYRVFGVLAMSRSIGDRYLKPWIIPVPEITIVPRAKDDECLVLASDGLWDVMSNEEVCDVARKRILLWHKKNGTNPASAPRSGDSSDPAAEAAAECLSKLALQKGSKDNISVIVVDLKAHRKFKSKS	no binding	no binding	no binding
